# According to patent US4100117A (Eli Lilly and Company, priority 1977, dated 1978):
# Assay: general procedure: Boc solid-phase peptide synthesis; chloromethylated resin or hydroxymethyl resin
substance,measurement,setting,value
"PEPTIDE1{[dV].G.C.K.N.F.F.W.K.T.F.T.S.C}$PEPTIDE1,PEPTIDE1,3:R3-14:R3$$$V2.0",oxidative folding yield,"oxidative folding step, from reduced form",54.3%
same,isolated yield,whole synthesis,24.8%

# Strings that start with PEPTIDE1 are HELM notation: dots part the residues, brackets hold end groups and non-standard residues.
